# According to PubChem BioAssay AID2061318 (National Center for Advancing Translational Sciences (NCATS), 2025):
# This list was built around the results that the source calls inconclusive (neither active nor inactive); the mix of calls is not that of the screen. Potencies beside an inconclusive call are fits to weak or partial responses and may not hold up. The source made the active and inactive calls. Calls come from the whole dose curve; as a rule, active = well fitted inhibition curve with a large enough effect; inconclusive = small, poorly fitted or top-dose-only effect; inactive = flat fitted curve, though single readings scatter. Non-standard residues stand in square brackets, D forms with d. Residues, ends and D or L forms follow the SMILES beside them. Dolaproine = CO[C@@H]([C@@H]1CCCN1)[C@@H](C)C(=O)O; Dil = CC[C@H](C)[C@H](NC)[C@@H](CC(=O)O)OC; NMeV = CN[C@H](C(=O)O)C(C)C
# Experiment: Identification of antibody-drug conjugate (ADC) payloads which are substrates of ATP-binding cassette drug efflux transporters: ABCB1-HEK293-MDR-19 cell line
# Settings: HEK293 ABCB1 (MDR-19) viability, CellTiter-Glo, 48 h
# Description: Antibody-drug conjugates (ADCs) feature an antibody recognizing a specific protein joined to a potent toxic payload. Numerous antibody-drug conjugates have received FDA approval; however, clinical resistance arises. Resistance mechanisms include decreased expression or mutation of the antibody target, impaired payload release, or increased expression of ATP-binding cassette (ABC) efflux transporters associated with multidrug resistance. We therefore sought to characterize the interaction of ABC multidrug transporters with ADC payloads. We performed a high-throughput screen with 27 common ADC payloads using cells lines expressing ABC transporters P-glycoprotein (P-gp, encoded by ABCB1) or ABCG2 (encoded by ABCG2). Confirmatory assays were also performed using cells transfected to express P-gp, ABCG2, or MRP1 (encoded by ABCC1). Several commonly used ADC payloads were substrates of P-gp, including calicheamicin gamma1, monomethyl auristatin E, DM1, and DM4. All the pyrrolobenzodiazepines tested - SJG136, SGD-1882, SG2057, and SG3199 - were substrates of P-gp, ABCG2, and MRP1. […] These findings highlight the risk of transporter-mediated resistance with certain ADC payloads and underscore the importance of selecting payloads that evade ABC transporter recognition in future ADC development.
# HEK-293 cells were transfected with empty vector (pcDNA) or vector containing the human ABCB1 (MDR-19), ABCG2 (R-5), or ABCC1 gene (MRP1) and were maintained in EMEM with 2 mg/mL G418 added to maintain transporter expression. The HeLa derivative KB-3-1 and the P-gp overexpressing KB-8-5-11 subline were maintained in DMEM; KB-8-5-11 additionally received 100 ng/mL colchicine. H460 parental cells were obtained from the Division of Cancer Treatment and Diagnosis Tumor Repository, National Cancer Institute at Frederick, MD and were cultured in RPMI. The ABCG2 expressing subline H460 MX20 was generated by selecting H460 cells in 20 nM mitoxantrone. Media in all cases was supplemented with 10% FBS and 1% penicillin-streptomycin. We explored 27 common ADC payloads, in two orthogonal, paired cell line sets-a drug selected and transfected set for each transporter--to identify substrates of the ABC transporters P-gp and ABCG2. Compounds were sourced from Levena Biopharma (San Diego, CA), Selleck Chem (Houston, TX), ChemieTek (Indianapolis, IN), or Microsource Discovery Systems (Gaylordsville, CT). Screening was performed as previously described. Briefly, cells were plated at a density of 500 cells/well in 1536 well plates with compounds added using a 1536-head pin tool (Kalypsys, San Diego CA). Cells were incubated with cytotoxic drugs and processed with CellTiter Glo reagent (Promega, Madison, WI) to determine viability after 48 hours. P-gp substrates were identified by comparing compound activity between paired sets of low-expressing (sensitive) and over-expressing (resistant) cell lines.
row,Compound,Potency
1,COc1ccc(C2=CN3C(=O)c4cc(OC)c(OCCCOc5cc6c(cc5OC)C(=O)N5C=C(c7ccc(N)cc7)C[C@@H]5C=N6)cc4N=C[C@H]3C2)cc1,"inconclusive: 18.8 nM [falling, full curve]"
2,CC[C@H](C)[C@@H]([C@H](N)CC(=O)N1CCC[C@H]1[C@H](OC)[C@@H](C)C(=O)N[C@@H](Cc1ccccc1)c1nccs1)N(C)C(=O)[C@@H](NC(=O)[C@H](C(C)C)N(C)C)C(C)C,"inconclusive: 14.9 nM [falling, full curve]"
3,CC[C@H](C)[C@@H]([C@H](N)CC(=O)N1CCC[C@H]1[C@H](OC)[C@@H](C)C(=O)N[C@@H](Cc1ccccc1)c1nccs1)N(C)C(=O)[C@@H](NC(=O)[C@@H](NC)C(C)C)C(C)C,"inconclusive: 3 nM [falling, full curve]"
4,CC[C@H](C)[C@@H]([C@@H](CC(=O)N1CCC[C@H]1[C@H](OC)[C@@H](C)C(=O)N[C@@H](Cc1ccccc1)C(=O)O)OC)N(C)C(=O)[C@@H](NC(=O)[C@@H](NC)C(C)C)C(C)C (H-[NMeV]V[Dil][Dolaproine]F-OH),"inconclusive: 1670 nM [falling, full curve]"
5,CC[C@]1(O)CC2CN(CCc3c([nH]c4ccccc34)[C@@](C(=O)OC)(c3cc4c(cc3OC)N(C)[C@H]3[C@@](O)(C(=O)OC)[C@H](OC(C)=O)[C@]5(CC)C=CCN6CC[C@]43[C@@H]65)C2)C1 (some centres not stated),"inconclusive: 594 nM [falling, full curve]"
6,COc1cc2cc(c1Cl)N(C)C(=O)C[C@H](O)[C@]1(C)O[C@H]1[C@H](C)C1C[C@@](O)(NC(=O)O1)[C@H](OC)/C=C/C=C(\C)C2,active: 2980 nM
7,Cc1nc(Nc2ncc(C(=O)Nc3c(C)cccc3Cl)s2)cc(N2CCN(CCO)CC2)n1,"inconclusive: 14900 nM [falling, single point]"
